# Assays:
# By UniProt entry, the sequences of proteins in these tests, tags left out.
# UniProt P20272, whole entry: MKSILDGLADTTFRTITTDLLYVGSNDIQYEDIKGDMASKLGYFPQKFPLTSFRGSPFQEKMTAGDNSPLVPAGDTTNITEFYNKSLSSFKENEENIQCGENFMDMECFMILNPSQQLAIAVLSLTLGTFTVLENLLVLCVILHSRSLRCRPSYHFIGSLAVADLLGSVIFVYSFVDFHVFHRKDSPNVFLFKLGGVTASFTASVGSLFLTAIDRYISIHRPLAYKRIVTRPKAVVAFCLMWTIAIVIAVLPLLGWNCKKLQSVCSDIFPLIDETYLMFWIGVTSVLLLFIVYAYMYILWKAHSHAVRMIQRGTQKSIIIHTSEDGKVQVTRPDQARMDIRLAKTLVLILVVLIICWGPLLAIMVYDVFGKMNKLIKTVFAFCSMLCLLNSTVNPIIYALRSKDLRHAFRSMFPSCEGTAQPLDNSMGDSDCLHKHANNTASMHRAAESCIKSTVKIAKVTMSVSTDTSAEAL
# Type in all cases: functional, cell-based
# [1] = target: Cannabinoid receptor 1 (Rattus norvegicus) (UniProt P20272); test: Allosteric agonist activity at N-terminal GFP-tagged rat CB1R expressed in HEK293 cells assessed as inhibition of forskolin-induced cAMP production by measuring cAMP accumulation at minimal level at higher concentrations after 30 min by TR-FRET assay relative to forskolin
# In short: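 HEK293 cells stably expressing N-terminal GFP-tagged rat CB1R were trypsin-EDTA dissociated and resuspended in HBSS with 0.1% BSA and 0.5mM IBMX at 500 cells/well. Cells got 5μM forskolin plus compound (1 pM – 10 μM) alone for 30 min. 4-parameter fit; Emin is the lower plateau. n ≥ 3, triplicate.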
# [2] = target: Cannabinoid receptor 1 (Rattus norvegicus) (UniProt P20272); test: (§1) Positive allosteric modulatory activity at N-terminal GFP-tagged rat CB1R receptor expressed in HEK293 cells assessed as increase in CP55940-induced inhibition of forskolin-induced cAMP accumulation by measuring Emax for cAMP accumulation at low concentration of CP55940 at 0.001 microM after 30 mins by TR-FRET assay relative to forskolin
# [3] = target: Cannabinoid receptor 1 (Rattus norvegicus) (UniProt P20272); test: as §1, with “concentrations” for “concentration”, “0.03” for “0.001”
# [4] = target: Cannabinoid receptor 1 (Rattus norvegicus) (UniProt P20272); test: as §1, with “0.1” for “0.001”
# [5] = target: Cannabinoid receptor 1 (Rattus norvegicus) (UniProt P20272); test: as §1, with “0.3” for “0.001”
structure (smiles),measurement,setting,value
O=[N+]([O-])CC(c1ccccc1)c1c(-c2ccccc2)[nH]c2ccccc12 (racemic),Emin,[1],39%
same,Emax,[2],101%
same,Emax,[3],100%
same,Emax,[4],82%
same,Emax,[5],75%

# Reference: ChEMBL document CHEMBL4376840, “Application of Fluorine- and Nitrogen-Walk Approaches: Defining the Structural and Functional Diversity of 2-Phenylindole Class of Cannabinoid 1 Receptor Positive Allosteric Modulators” (J Med Chem, 2020)
